From patent publication US6342481B1 (priority 1993, dated 2002) come the findings set out here.

Strings that start with PEPTIDE1 are HELM notation: dots part the residues, brackets hold end groups and non-standard residues. Non-standard residues stand in square brackets, D forms with d. *: point of attachment. Cbz = O=C(OCc1ccccc1)*; Sar = CNCC(=O)O

The first series in a line: general procedure: solution-phase peptide synthesis; BOP/HOBT/TEA; PyBrop/DIPEA; DCC/N-hydroxysuccinimide. As to conditions: coupling step, acetate (AcOH), TFA for some.
As to Z-Gly-(Et)Lys(Boc)-Pro-DArg-OH, the “crude HPLC purity” value was 82%.
For Z-Gly-(Et)Lys(Boc)-Pro-Leu-OtBu, the “crude HPLC purity” value is given as above 99%.
On the same count and under the same terms, the value for Z-Gly-(Et)Lys(Boc)-Pro-Lys(Boc)-OtBu was 90%; that for Z-Leu-(Et)Lys(Boc)-Pro-Arg-OH was 84%.

The same series, now with this note: late stage modification step, TFA.
With Z-Leu-(Et)Lys-Pro-Arg-OH.TFA, the “final HPLC purity” value is reported as 98%.

The series is the same for the next values; noted with them: late stage modification step, acetate (AcOH), TFA for some.
On to Cbz-[Sar]KPR-OH, for which the “final HPLC purity” value is recorded as above 95%.
On the same count and under the same terms, the value for H-Gly-(Et)Lys-Pro-Lys-OH.AcOH was 98.9%; that for H-Sar-Lys-Pro-Arg-OH.2AcOH was above 99%; that for PEPTIDE1{G.[EtLys].P.L}$$$$V2.0 was 98%.
Still for that read-out and setting: the value for PEPTIDE1{G.[EtLys].P.[dR]}$$$$V2.0 was 98.1%; that for PEPTIDE1{L.[EtLys].P.R}$$$$V2.0 was 97%; that for Z-Gly-(Et)Lys-Pro-DArg-OH.TFA was 98.9%.

The series is the same for the next values; noted with them: purification step, acetate (AcOH), TFA for some.
In the case of Z-Gly-(Et)Lys-Pro-Arg-OH.2AcOH, the “final HPLC purity” value is listed as 97.5%.

The same series, now with this note: whole synthesis, acetate (AcOH), TFA for some.
With H-Gly-(Bzl)Lys-Pro-Arg-OH.2AcOH, the “final HPLC purity” value is listed as above 99%.
As to PEPTIDE1{G.P.P.R}$$$$V2.0, the “final HPLC purity” value was above 98%.
The same measure, in the same setting: the value for PEPTIDE1{G.[isoBuLys].P.R}$$$$V2.0 was above 98%.
